Results are given in words; binding and its absence hold for the method and conditions named. Binding seen in cells or lysates may run through a third protein. Some entries that bind do so weakly or less than the wild type.
Target: T1, Forkhead box A2 (FOXA2) (human (endogenous in A549)) (UniProt Q9Y261)
T1 sequence: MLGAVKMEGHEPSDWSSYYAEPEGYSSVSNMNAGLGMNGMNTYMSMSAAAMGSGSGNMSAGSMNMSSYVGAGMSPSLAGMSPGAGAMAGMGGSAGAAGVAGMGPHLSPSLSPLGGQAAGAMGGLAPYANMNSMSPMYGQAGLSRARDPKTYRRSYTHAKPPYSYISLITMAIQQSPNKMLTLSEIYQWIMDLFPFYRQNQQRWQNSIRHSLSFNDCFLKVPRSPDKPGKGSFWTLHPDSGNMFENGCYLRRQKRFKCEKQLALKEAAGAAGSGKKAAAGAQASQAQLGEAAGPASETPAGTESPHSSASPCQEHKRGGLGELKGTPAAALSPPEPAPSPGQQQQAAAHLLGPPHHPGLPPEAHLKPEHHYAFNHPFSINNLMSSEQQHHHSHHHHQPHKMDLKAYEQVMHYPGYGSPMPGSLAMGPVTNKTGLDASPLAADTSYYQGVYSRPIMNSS
Assay: co-IP; A549 cells lysed in NP-40 buffer with protease inhibitors; precleared lysate incubated overnight at 4°C with anti-USP54, anti-FOXA2 or control IgG; protein G-Sepharose; four washes with lysis buffer; western blot

Sequences of proteins named here, by UniProt entry; tags and fusion partners are left off.
UniProt Q70EL1: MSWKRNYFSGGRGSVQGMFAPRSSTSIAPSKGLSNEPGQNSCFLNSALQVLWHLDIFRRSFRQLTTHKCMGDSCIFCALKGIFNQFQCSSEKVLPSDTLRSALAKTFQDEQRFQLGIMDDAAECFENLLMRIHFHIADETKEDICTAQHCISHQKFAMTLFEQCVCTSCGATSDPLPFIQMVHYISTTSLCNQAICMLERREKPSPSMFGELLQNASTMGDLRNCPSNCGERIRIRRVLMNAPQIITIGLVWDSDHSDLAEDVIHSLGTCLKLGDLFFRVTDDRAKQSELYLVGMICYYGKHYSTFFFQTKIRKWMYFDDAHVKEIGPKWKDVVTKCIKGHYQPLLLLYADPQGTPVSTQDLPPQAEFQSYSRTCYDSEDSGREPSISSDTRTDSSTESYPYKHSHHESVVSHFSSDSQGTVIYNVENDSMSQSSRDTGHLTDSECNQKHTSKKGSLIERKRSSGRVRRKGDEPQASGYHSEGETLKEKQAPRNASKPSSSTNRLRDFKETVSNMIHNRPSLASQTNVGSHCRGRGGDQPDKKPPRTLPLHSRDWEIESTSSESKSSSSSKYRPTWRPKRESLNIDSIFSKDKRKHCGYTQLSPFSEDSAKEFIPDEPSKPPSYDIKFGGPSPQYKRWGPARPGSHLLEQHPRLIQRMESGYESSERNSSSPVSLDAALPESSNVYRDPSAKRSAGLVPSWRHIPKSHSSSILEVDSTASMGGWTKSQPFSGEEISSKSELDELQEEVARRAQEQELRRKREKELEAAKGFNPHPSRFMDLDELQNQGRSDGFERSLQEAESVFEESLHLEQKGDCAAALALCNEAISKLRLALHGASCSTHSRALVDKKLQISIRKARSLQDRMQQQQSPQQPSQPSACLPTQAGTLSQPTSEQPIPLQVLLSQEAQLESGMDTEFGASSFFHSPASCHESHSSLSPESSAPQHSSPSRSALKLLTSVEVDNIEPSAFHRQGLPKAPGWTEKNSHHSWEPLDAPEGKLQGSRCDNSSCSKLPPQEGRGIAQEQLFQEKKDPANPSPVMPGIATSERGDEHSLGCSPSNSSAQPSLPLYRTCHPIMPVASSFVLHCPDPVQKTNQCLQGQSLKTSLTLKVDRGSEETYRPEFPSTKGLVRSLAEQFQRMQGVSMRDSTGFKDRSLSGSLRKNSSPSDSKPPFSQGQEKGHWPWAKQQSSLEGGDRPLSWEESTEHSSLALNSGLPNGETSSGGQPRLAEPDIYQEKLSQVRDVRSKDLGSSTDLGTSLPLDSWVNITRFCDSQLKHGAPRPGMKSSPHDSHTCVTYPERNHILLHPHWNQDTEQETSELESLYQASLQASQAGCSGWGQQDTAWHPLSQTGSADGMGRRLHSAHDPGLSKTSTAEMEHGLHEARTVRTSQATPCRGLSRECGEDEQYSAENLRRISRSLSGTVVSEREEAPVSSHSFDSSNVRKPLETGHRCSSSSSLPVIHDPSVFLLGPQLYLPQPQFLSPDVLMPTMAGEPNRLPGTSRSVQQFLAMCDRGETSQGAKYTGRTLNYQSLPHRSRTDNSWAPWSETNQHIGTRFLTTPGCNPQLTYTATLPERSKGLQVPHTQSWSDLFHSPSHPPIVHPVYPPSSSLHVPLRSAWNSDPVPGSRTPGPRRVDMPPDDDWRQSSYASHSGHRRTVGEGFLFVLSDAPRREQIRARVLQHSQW

binding: binds
Substance: Ubiquitin-specific protease 54 (USP54) (from UniProt Q70EL1 1-1684) (enzyme)

— article PMC13248803
